Laboratory results taken from US12491217B2, “Compositions and methods for promoting healthy neural development in an unborn baby” (The Regents of the University of California, priority 2019, dated 2025).

Test: Metabolomics of fetal brain at E14.5
Type: in vivo, C57Bl/6J mice
Settings: E14.5 fetal brain metabolite level; for fold of change ABX/SPF: ANOVA contrast ABX vs SPF; for fold of change GF/ABX: ANOVA contrast GF vs ABX; for fold of change GF/SPF: ANOVA contrast GF vs SPF; for fold of change GF/Sp: ANOVA contrast GF vs Sp; for fold of change Sp/ABX: ANOVA contrast Sp vs ABX; for fold of change Sp/SPF: ANOVA contrast Sp vs SPF

Row | SMILES | fold of change ABX/SPF | fold of change GF/ABX | fold of change GF/SPF | fold of change GF/Sp | fold of change Sp/ABX | fold of change Sp/SPF
1 | CCCCCCCC/C=C\CCCCCCCC(=O)OC(COC(=O)CCCCCCCCCCCCCCCCC)COP(=O)(O)OCC(N)C(=O)O (stereo not drawn) [compound 2021] | 0.91 | 0.97 | 0.88 | 0.97 | 1.00 | 0.92
2 | CCCCC/C=C\C/C=C\C/C=C\C/C=C\CCCC(=O)O[C@H](COC(=O)CCCCCCCCCCCCCCCCC)COP(=O)(O)OC[C@H](N)C(=O)O [compound 2024] | 0.91 | 0.93 | 0.85 | 0.99 | 0.94 | 0.86
3 | CCCCCCCC/C=C\CCCCCCCC(=O)OC(COC(=O)CCCCCCCCCCCCCCC)COP(=O)(O)OCC(O)CO (stereo not drawn) [compound 2034] | 0.72 | 1.01 | 0.73 | 0.86 | 1.17 | 0.84
4 | CCCCC/C=C\C/C=C\C/C=C\C/C=C\CCCC(=O)O[C@H](COC(=O)CCCCCCCCCCCCCCC)COP(=O)(O)OC1C(O)C(O)C(O)C(O)C1O (stereo partly drawn) [compound 2052] | 0.83 | 0.85 | 0.71 | 0.91 | 0.93 | 0.77
5 | CCCCC/C=C\C/C=C\C/C=C\C/C=C\CCCC(=O)O[C@H](COC(=O)CCCCCCCCCCCCCCCCC)COP(=O)(O)OC1C(O)C(O)C(O)C(O)C1O (stereo partly drawn) [compound 2067] | 0.83 | 0.92 | 0.77 | 0.96 | 0.96 | 0.80
6 | CCCCC/C=C\C/C=C\C/C=C\C/C=C\CCCC(=O)OC(COC(=O)CCCCCCC/C=C\CCCCCCCC)COP(=O)(O)OC1C(O)C(O)C(O)C(O)C1O (stereo not drawn) [compound 2072] | 0.91 | 0.81 | 0.74 | 0.97 | 0.84 | 0.76
7 | CCCCCCCCCCCCCCCC(=O)OCC(O)COP(=O)([O-])OCC[N+](C)(C)C (stereo not drawn) [compound 2105] | 0.56 | 1.16 | 0.65 | 0.78 | 1.49 | 0.83
8 | CCCCCCCCCCCCCCCC(=O)OC(CO)COP(=O)([O-])OCC[N+](C)(C)C (stereo not drawn) [compound 2106] | 0.61 | 1.25 | 0.76 | 0.83 | 1.50 | 0.91
9 | CCCCCCC=CCCCCCCCC(=O)OCC(O)COP(=O)([O-])OCC[N+](C)(C)C (stereo not drawn) [compound 2107] | 0.65 | 1.17 | 0.75 | 0.86 | 1.36 | 0.88
10 | CCCCCCCCCCCCCCCCCC(=O)OCC(O)COP(=O)([O-])OCC[N+](C)(C)C (stereo not drawn) [compound 2113] | 0.56 | 1.28 | 0.71 | 0.80 | 1.60 | 0.89
11 | CCCCCCCCC=CCCCCCCCC(=O)OCC(O)COP(=O)([O-])OCC[N+](C)(C)C (stereo not drawn) [compound 2115] | 0.61 | 1.12 | 0.68 | 0.77 | 1.45 | 0.88
12 | CCCCCC=CCC=CCCCCCCCC(=O)OCC(O)COP(=O)([O-])OCC[N+](C)(C)C (stereo not drawn) [compound 2118] | 0.85 | 1.11 | 0.94 | 1.10 | 1.01 | 0.86
13 | CCCCCC=CCC=CCC=CCC=CCCCC(=O)OCC(O)COP(=O)([O-])OCC[N+](C)(C)C (stereo not drawn) [compound 2136] | 0.75 | 0.51 | 0.39 | 0.78 | 0.65 | 0.49
14 | CCCCCCCCCCCCCCCC(=O)OCC(O)COP(=O)(O)OCCN (stereo not drawn) [compound 2157] | 0.61 | 1.18 | 0.72 | 0.81 | 1.45 | 0.89
15 | CCCCCCCCCCCCCCCCCC(=O)OCC(O)COP(=O)(O)OCCN (stereo not drawn) [compound 2164] | 0.70 | 0.97 | 0.68 | 0.85 | 1.15 | 0.80
16 | CCCCCCCCCCCCCCCCCC(=O)OC(CO)COP(=O)(O)OCCN (stereo not drawn) [compound 2165] | 0.91 | 0.70 | 0.64 | 1.05 | 0.67 | 0.60
17 | CCCCCCCC/C=C\CCCCCCCC(=O)OCC(O)COP(=O)(O)OCCN (stereo not drawn) [compound 2166] | 0.75 | 1.11 | 0.84 | 0.87 | 1.27 | 0.96
18 | CCCCC/C=C\C/C=C\CCCCCCCC(=O)OCC(O)COP(=O)(O)OCCN (stereo not drawn) [compound 2168] | 0.84 | 1.18 | 0.99 | 1.09 | 1.08 | 0.91
19 | CCCCC/C=C\C/C=C\C/C=C\C/C=C\CCCC(=O)OCC(O)COP(=O)(O)OCCN (stereo not drawn) [compound 2179] | 0.57 | 1.60 | 0.92 | 1.04 | 1.53 | 0.88
20 | CCCCCCCCCCCCCCCC(=O)OCC(O)COP(=O)(O)OCC(N)C(=O)O (stereo not drawn) [compound 2192] | 0.50 | 1.38 | 0.69 | 0.95 | 1.46 | 0.73
21 | CCCCCCCCCCCCCCCCCC(=O)OCC(O)COP(=O)(O)OCC(N)C(=O)O (stereo not drawn) [compound 2193] | 0.38 | 1.87 | 0.71 | 0.88 | 2.12 | 0.81
22 | CCCCCCCC/C=C\CCCCCCCC(=O)OCC(O)COP(=O)(O)OCC(N)C(=O)O (stereo not drawn) [compound 2194] | 0.76 | 0.78 | 0.59 | 0.90 | 0.87 | 0.66
